Results reported in PubChem BioAssay AID1224861 (National Center for Advancing Translational Sciences (NCATS), 2016).
The inconclusive results got no clear call from the source. Potencies beside an inconclusive call are fits to weak or partial responses and may not hold up.

Assay: Compound cytotoxicity measured by an ATP content assay as a counter-screen for lead compounds in human astrocytes
Conditions: human astrocytes viability, ATP luminescence; active means well fitted cell-killing curve with a large enough effect; inconclusive means small, poorly fitted or top-dose-only effect, or effect the other way; inactive means flat fitted curve, though single readings scatter
Procedure: National Center for Advancing Translational Sciences [NCATS] Johns Hopkins University School of Medicine Florida State University Assay Overview: Many compounds can cause cytotoxicity at high compound concentrations. […] The compound cytotoxicity may also cause side effects or toxicity in human. Thus, the compound cytotoxicity needs to be measured in each cell type and each compound incubation time - same as these in the compound screening assay. The compound cytotoxicity can be measured by cell viability assays such as the ATP content assay. We use an ATP content assay kit for cell viability measurement. It measures ATP content (level) in human astrocytes using a luminescence readout that is proportional to viable cell numbers. Decrease in the luminescence signal after the compound treatment indicates reduced cell viability and cell death caused by compound treatment.
Assay Protocol Summary: The medium for astrocytes contains AM basal medium (ScienCell, Cat.# 1801), AGS (ScienCell, Cat.# 1801), 10% FBS, and 1% Pen/Strep. The ATP content assay kit (PerkinElmer, Cat.# 6016731) was used to determine cell viability. The reagent was reconstituted and prepared as described by the manufacturer. Cells were seeded in 384- or 1536-well assay plates and cultured at 37 C with 5% CO2 for 16 to 20 hours. The typical cell seeding density in the 1536-well plate assay is 350 cells/well in 3 ul medium for astrocytes in the tissue cultured treated/PDL coated plates. Compounds were added to cells and incubated for a specific time such as 6, 24, or 72 hours before addition of the reagent mixture of the ATP content assay kit at 1:1 ratio. After incubation at room temperature for 10 minutes, the luminescence intensity in assay plates was measured using a ViewLux plate reader (PerkinElmer). […] The percentage inhibitions of the decreased cell viability by small molecules were then calculated that indicate compound cytotoxicity.

Row | Structure (SMILES) | Potency
1 | CC(C)[C@H]1C(=O)N[C@H](CO)Cc2c[nH]c3cccc(c23)N1C | inconclusive: 0.0548 µM [cytotoxic, full curve, poor fit]
2 | S=C(SSC(=S)N1CCCCC1)N1CCCCC1 | inconclusive: 27.5 µM [cytotoxic, single point]
3 | O=S(=O)(CC1CS1)c1ccc(Oc2ccccc2)cc1 (stereo not drawn) | inconclusive: 21.8 µM [cytotoxic, single point]
